Reference: PMC7570844, “Skin Damages—Structure Activity Relationship of Benzimidazole Derivatives Bearing a 5-Membered Ring System” (Molecules, 2020)

Key:
Experiment in all cases: Cell proliferation inhibition
[1] = tested on: human pancreatic carcinoma cells (Mia Paca-2); details: IC50 in normal cell line (Hek293)/IC50 in Mia Paca-2
[2] = tested on: human T-lymphocyte cells (CEM); details: IC50 in normal cell line (Hek293)/IC50 in CEM
[3] = tested on: human melanoma cells (SK-Mel 5); details: IC50 in normal cell line (Hek293)/IC50 in SK-Mel 5

## O=S(=O)(O)c1ccc2[nH]c(-c3ccc[nH]3)nc2c1 [Compound 7, 2-(1H-pyrrol-2-yl)-1H-benzimidazole-5-sulfonic Acid]
[1]
  SI: 2.39
[2]
  SI: 2.16

## O=S(=O)(O)c1ccc2[nH]c(-c3cccs3)nc2c1 [Compound 9, 2-(thiophen-2-yl)-1H-benzimidazole-5-sulfonic Acid]
[1]
  SI: 2.33
[2]
  SI: 2.94

## c1c[nH]c(-c2nc3ccccc3[nH]2)c1 [Compound 10, 2-(1H-pyrrol-2-yl)-1H-benzimidazole]
[1]
  SI: 2.07
[2]
  SI: 2.21
[3]
  SI: 3.20

## c1csc(-c2nc3ccccc3[nH]2)c1 [Compound 12, 2-(thiophen-2-yl)-1H-benzimidazole]
[3]
  SI: 1.16

## O=C(O)c1ccc2[nH]c(-c3ccco3)nc2c1 [Compound 14, 2-(furan-2-yl)-1H-benzimidazole-5-carboxylic Acid]
[2]
  SI: 1.33

## O=C(O)c1ccc2[nH]c(-c3cccs3)nc2c1 [Compound 15, 2-(thiophen-2-yl)-1H-benzimidazole-5-carboxylic Acid]
[1]
  SI: 1.25
[2]
  SI: 2
